Results are given in words; binding and its absence hold for the method and conditions named. In cells and extracts the contact can be indirect. Some binding calls cover weakened binding; strength is not graded here. Tags and fused reporters may be left off the sequences shown.
T1: Flag-SDS3 (full length human suppressor of defective silencing 3) (human) (UniProt Q9H7L9)
T1 sequence: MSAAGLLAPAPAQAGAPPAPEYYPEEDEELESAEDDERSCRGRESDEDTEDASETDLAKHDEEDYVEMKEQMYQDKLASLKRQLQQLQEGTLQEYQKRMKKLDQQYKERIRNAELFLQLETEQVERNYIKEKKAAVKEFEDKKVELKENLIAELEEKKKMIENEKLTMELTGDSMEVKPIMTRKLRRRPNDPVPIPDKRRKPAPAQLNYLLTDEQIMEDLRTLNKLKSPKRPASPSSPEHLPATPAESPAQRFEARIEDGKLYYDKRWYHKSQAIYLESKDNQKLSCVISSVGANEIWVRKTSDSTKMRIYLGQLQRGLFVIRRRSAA

T2: Flag-SDS3ΔHABMs (SDS3 lacking the three consecutive hyaluronan binding motifs) (human) (UniProt Q9H7L9)
T2 sequence: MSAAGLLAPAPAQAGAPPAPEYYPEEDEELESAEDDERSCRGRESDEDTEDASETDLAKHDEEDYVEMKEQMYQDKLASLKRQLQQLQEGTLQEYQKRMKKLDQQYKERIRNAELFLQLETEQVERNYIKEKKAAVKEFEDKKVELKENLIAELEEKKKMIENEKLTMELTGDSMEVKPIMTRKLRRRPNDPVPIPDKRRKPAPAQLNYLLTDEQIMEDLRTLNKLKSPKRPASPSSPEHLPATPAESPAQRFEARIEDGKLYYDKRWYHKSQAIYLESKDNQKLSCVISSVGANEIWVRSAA


Tests used:
[1] = target: T1, Flag-SDS3 (full length human suppressor of defective silencing 3) (human); experiment: co-IP; HeLa cells transfected with myc-USP17 and Flag-SDS3 constructs; co-immunoprecipitation with either an anti-myc or an anti-Flag antibody, immunoblot
[2] = target: T2, Flag-SDS3ΔHABMs (SDS3 lacking the three consecutive hyaluronan binding motifs) (human); experiment: as above

Binder	binding [1]	binding [2]
myc-USP17ΔHABM1 (first HABM deleted USP17) (enzyme, UniProt Q6R6M4) MEDDSLYLGGEWQFNHFSKLTSSRPDAAFAEIQRTSLPEKSPLSSEARVDLCDDLAPVARQLAPRKKLPLSSRRPAAVGAGLQNMGNTCYENASLQCLTYTPPLANYMLSREHSQTCQRPKCCMLCTMQAHITWALHSPGHVIQPSQALAAGFHRGKQEDAHEFLMFTVDAMKKACLPGHKQVDHHSKDTTLIHQIFGGCWRSQIKCLHCHGISDTFDPYLDIALDIQAAQSVKQALEQLVKPEELNGENAYHCGLCLQRAPASKTLTLHTSAKVLILVLKRFSDVTGNKLAKNVQYPECLDMQPYMSQQNTGPLVYVLYAVLVHAGWSCHDGHYFSYVKAQEGQWYKMDDAKVTACSITSVLSQQAYVLFYIQKSEWERHSESVSRGREPRALGAEDTDDHPCLQAPELDERLVERATQESTLDHWKFPQEQNKTKPEFNVRKVEGTLPPNVLVIHQSKYKCGMKNHHPEQQSSLLNLSSTTRTDQESVNTGTLASLQGRTRRSKGKNKHSKRALLVCQ	binds	–
myc-USP17 (full length USP17 deubiquitinating enzyme) (enzyme, UniProt Q6R6M4 1-530) MEDDSLYLGGEWQFNHFSKLTSSRPDAAFAEIQRTSLPEKSPLSSEARVDLCDDLAPVARQLAPRKKLPLSSRRPAAVGAGLQNMGNTCYENASLQCLTYTPPLANYMLSREHSQTCQRPKCCMLCTMQAHITWALHSPGHVIQPSQALAAGFHRGKQEDAHEFLMFTVDAMKKACLPGHKQVDHHSKDTTLIHQIFGGCWRSQIKCLHCHGISDTFDPYLDIALDIQAAQSVKQALEQLVKPEELNGENAYHCGLCLQRAPASKTLTLHTSAKVLILVLKRFSDVTGNKLAKNVQYPECLDMQPYMSQQNTGPLVYVLYAVLVHAGWSCHDGHYFSYVKAQEGQWYKMDDAKVTACSITSVLSQQAYVLFYIQKSEWERHSESVSRGREPRALGAEDTDRRATQGELKRDHPCLQAPELDERLVERATQESTLDHWKFPQEQNKTKPEFNVRKVEGTLPPNVLVIHQSKYKCGMKNHHPEQQSSLLNLSSTTRTDQESVNTGTLASLQGRTRRSKGKNKHSKRALLVCQ	binds	–

Further lines, results first:

binding [1]	binding [2]	Binder
binds	binds	myc-USP17ΔHABMs (USP17 lacking both hyaluronan binding motifs) (enzyme, UniProt Q6R6M4) MEDDSLYLGGEWQFNHFSKLTSSRPDAAFAEIQRTSLPEKSPLSSEARVDLCDDLAPVARQLAPRKKLPLSSRRPAAVGAGLQNMGNTCYENASLQCLTYTPPLANYMLSREHSQTCQRPKCCMLCTMQAHITWALHSPGHVIQPSQALAAGFHRGKQEDAHEFLMFTVDAMKKACLPGHKQVDHHSKDTTLIHQIFGGCWRSQIKCLHCHGISDTFDPYLDIALDIQAAQSVKQALEQLVKPEELNGENAYHCGLCLQRAPASKTLTLHTSAKVLILVLKRFSDVTGNKLAKNVQYPECLDMQPYMSQQNTGPLVYVLYAVLVHAGWSCHDGHYFSYVKAQEGQWYKMDDAKVTACSITSVLSQQAYVLFYIQKSEWERHSESVSRGREPRALGAEDTDDHPCLQAPELDERLVERATQESTLDHWKFPQEQNKVEGTLPPNVLVIHQSKYKCGMKNHHPEQQSSLLNLSSTTRTDQESVNTGTLASLQGRTRRSKGKNKHSKRALLVCQ
binds weakly	–	myc-USP17ΔHABM2 (second HABM deleted USP17) (enzyme, UniProt Q6R6M4) MEDDSLYLGGEWQFNHFSKLTSSRPDAAFAEIQRTSLPEKSPLSSEARVDLCDDLAPVARQLAPRKKLPLSSRRPAAVGAGLQNMGNTCYENASLQCLTYTPPLANYMLSREHSQTCQRPKCCMLCTMQAHITWALHSPGHVIQPSQALAAGFHRGKQEDAHEFLMFTVDAMKKACLPGHKQVDHHSKDTTLIHQIFGGCWRSQIKCLHCHGISDTFDPYLDIALDIQAAQSVKQALEQLVKPEELNGENAYHCGLCLQRAPASKTLTLHTSAKVLILVLKRFSDVTGNKLAKNVQYPECLDMQPYMSQQNTGPLVYVLYAVLVHAGWSCHDGHYFSYVKAQEGQWYKMDDAKVTACSITSVLSQQAYVLFYIQKSEWERHSESVSRGREPRALGAEDTDRRATQGELKRDHPCLQAPELDERLVERATQESTLDHWKFPQEQNKVEGTLPPNVLVIHQSKYKCGMKNHHPEQQSSLLNLSSTTRTDQESVNTGTLASLQGRTRRSKGKNKHSKRALLVCQ

— publication PMC3360616
